2 molecules from patent US20030186286A1 can be followed below.

By UniProt entry, the sequences of proteins in these tests, tags left out. Residues count along the entry.
UniProt P42227, residues 2-770: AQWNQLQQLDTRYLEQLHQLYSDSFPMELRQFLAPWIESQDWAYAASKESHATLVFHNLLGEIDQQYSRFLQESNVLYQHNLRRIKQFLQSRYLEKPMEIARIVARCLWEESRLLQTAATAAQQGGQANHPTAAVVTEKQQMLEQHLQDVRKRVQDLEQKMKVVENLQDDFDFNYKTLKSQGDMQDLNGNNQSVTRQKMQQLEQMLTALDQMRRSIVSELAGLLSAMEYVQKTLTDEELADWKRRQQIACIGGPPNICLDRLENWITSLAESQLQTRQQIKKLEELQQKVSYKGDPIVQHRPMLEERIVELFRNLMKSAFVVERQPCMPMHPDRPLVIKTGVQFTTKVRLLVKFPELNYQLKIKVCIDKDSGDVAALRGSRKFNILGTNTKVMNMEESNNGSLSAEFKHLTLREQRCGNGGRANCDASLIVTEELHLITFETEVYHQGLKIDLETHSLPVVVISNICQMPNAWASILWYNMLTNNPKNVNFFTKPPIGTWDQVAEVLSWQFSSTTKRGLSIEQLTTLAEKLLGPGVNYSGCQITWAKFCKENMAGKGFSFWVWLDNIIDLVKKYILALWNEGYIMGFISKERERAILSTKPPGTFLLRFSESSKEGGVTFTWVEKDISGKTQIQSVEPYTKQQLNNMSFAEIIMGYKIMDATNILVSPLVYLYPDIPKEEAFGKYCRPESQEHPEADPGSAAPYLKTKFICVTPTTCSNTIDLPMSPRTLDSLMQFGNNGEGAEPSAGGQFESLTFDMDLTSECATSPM

Results are given in words; binding and its absence hold for the method and conditions named. Some results given as binding are weak or reduced against the parent protein; the word gives no strength.

For assay [1], the target named is STAT-3 (UniProt P42227). Put plainly: EMSA on the SOCS-3 promoter oligoprobe (-77 to -57); bands identified by antibody supershift. In general terms: A gel shift assay detects complexes by their altered migration in electrophoresis.
Assay [2] addresses STAT-1 (UniProt P42225). The description is as above.

On to STAT-3 (from UniProt P42227 2-770), for which the binding result in assay [1] was “binds”.

B1: STAT-1 (protein, UniProt P42225 2-749, looked up)
chain: SQWFELQQLDSKFLEQVHQLYDDSFPMEIRQYLAQWLEKQDWEHAAYDVSFATIRFHDLLSQLDDQYSRFSLENNFLLQHNIRKSKRNLQDNFQEDPVQMSMIIYNCLKEERKILENAQRFNQAQEGNIQNTVMLDKQKELDSKVRNVKDQVMCIEQEIKTLEELQDEYDFKCKTSQNREGEANGVAKSDQKQEQLLLHKMFLMLDNKRKEIIHKIRELLNSIELTQNTLINDELVEWKRRQQSACIGGPPNACLDQLQTWFTIVAETLQQIRQQLKKLEELEQKFTYEPDPITKNKQVLSDRTFLLFQQLIQSSFVVERQPCMPTHPQRPLVLKTGVQFTVKSRLLVKLQESNLLTKVKCHFDKDVNEKNTVKGFRKFNILGTHTKVMNMEESTNGSLAAELRHLQLKEQKNAGNRTNEGPLIVTEELHSLSFETQLCQPGLVIDLETTSLPVVVISNVSQLPSGWASILWYNMLVTEPRNLSFFLNPPCAWWSQLSEVLSWQFSSVTKRGLNADQLSMLGEKLLGPNAGPDGLIPWTRFCKENINDKNFSFWPWIDTILELIKNDLLCLWNDGCIMGFISKERERALLKDQQPGTFLLRFSESSREGAITFTWVERSQNGGEPDFHAVEPYTKKELSAVTFPDIIRNYKVMAAENIPENPLKYLYPNIDKDHAFGKYYSRPKEAPEPMELDDPKRTGYIKTELISVSEVHPSRLQTTDNLLPMSPEEFDEMSRIVGPEFDSMMSTV
With B1, the binding entry in assay [2] and in assay [1] was “binds” in each case.
